According to article PMC6026121:
Results are given in words; binding and its absence hold for the method and conditions named. Binding can be weak; no strength is given. Tags and fused reporters may be left off the sequences shown.

Biological target: HrpE-BD (Xanthomonas citri subsp. citri HrpE fused to the GAL4 DNA binding domain) (Xanthomonas citri subsp. citri)
Assay: two-hybrid; co-transformation of pOBD and pOAD plasmids in yeast strain PJ694a; growth on medium lacking W, L, H and A with 35 mM 3AT, 30 °C

B1: C-AtGRP-3-AD (conserved C-terminal region of AtGRP-3 fused to the GAL4 activation domain) (domain or fragment, UniProt Q9SL15 60-145)
chain: GGGNYQGGGGNYQGGGGNYQGGGGRYQGGGGRYQGGGGRYQGGGGRQGGGGSGGSYCRHGCCYRGYNGCSRCCSYAGEAVQTQPGH
  binding: binds
